Source: US10588921B2, “Drug for the treatment of cholesterol accumulation disorders” (NATIONAL UNIVERSITY CORPORATION KUMAMOTO UNIVERSITY, priority 2013, dated 2020)

Test system: NPC-derived HLCs
Assay: Microarray, cluster and PCA analysis of HLCs treated with HPCDs
Type: cell-based, human
Conditions: FIG. 25, 26

Substance: 2-hydroxypropyl-γ-cyclodextrin [HPGCD]
- mechanism of action by cluster analysis and PCA: acts with the mechanism different from HPBCD
